Binding data for five molecules are collected here from paper PMC9935893.

Amino acid sequences for entries named in this document (tags omitted).
UniProt O14744: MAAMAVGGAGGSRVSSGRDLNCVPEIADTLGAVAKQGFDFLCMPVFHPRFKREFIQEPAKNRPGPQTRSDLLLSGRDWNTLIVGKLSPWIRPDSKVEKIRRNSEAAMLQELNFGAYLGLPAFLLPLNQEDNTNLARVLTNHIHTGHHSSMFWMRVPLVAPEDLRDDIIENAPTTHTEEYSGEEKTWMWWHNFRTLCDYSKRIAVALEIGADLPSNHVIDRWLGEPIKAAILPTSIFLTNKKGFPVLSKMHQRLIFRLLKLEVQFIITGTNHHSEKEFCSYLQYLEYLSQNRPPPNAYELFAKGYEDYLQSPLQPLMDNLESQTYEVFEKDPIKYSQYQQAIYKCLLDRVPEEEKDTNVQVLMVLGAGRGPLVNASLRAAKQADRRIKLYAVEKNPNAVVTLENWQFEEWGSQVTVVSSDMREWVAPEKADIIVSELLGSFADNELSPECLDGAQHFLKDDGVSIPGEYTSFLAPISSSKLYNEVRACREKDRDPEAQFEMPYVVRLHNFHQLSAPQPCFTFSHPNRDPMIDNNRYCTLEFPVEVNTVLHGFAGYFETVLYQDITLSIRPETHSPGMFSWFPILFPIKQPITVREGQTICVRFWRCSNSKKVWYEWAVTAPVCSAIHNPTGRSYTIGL
UniProt Q99873: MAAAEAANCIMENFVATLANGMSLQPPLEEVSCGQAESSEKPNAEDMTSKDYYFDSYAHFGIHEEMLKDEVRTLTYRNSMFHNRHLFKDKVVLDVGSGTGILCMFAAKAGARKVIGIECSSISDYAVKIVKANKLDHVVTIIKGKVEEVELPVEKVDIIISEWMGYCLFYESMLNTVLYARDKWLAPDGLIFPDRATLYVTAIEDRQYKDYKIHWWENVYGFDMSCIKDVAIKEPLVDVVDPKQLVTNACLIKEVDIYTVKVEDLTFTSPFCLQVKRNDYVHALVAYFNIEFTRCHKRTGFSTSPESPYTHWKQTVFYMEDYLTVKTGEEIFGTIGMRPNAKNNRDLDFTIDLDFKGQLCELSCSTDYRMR

Where a chain is given by its changes, count along the chain named. No constants are given. Whether binding was seen depends on the method and setting. For part of these data: Binding seen in cells or lysates may run through a third protein. Some entries that bind do so weakly or less than the wild type. For part of these data: Sequences can lack the tags named with a protein.

Assay [1] has as its target T1, purified recombinant His-tagged ULK3 (UniProt Q6PHR2).
T1 sequence: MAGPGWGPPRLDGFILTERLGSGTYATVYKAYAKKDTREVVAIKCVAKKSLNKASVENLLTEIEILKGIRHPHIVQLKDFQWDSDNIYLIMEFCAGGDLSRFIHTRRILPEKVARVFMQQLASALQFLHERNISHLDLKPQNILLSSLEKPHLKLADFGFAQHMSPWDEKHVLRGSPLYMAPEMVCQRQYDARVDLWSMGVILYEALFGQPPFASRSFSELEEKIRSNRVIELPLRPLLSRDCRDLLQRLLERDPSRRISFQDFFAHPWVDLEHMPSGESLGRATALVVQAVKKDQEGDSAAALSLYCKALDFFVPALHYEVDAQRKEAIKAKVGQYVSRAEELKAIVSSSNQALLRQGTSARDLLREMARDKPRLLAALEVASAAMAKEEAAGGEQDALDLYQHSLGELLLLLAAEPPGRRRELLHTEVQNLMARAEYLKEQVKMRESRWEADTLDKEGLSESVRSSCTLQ
Put plainly: pull-down; recombinant FLAG-PRMT1 or FLAG-PRMT5 admixed with His-ULK3, pulled down with HisPur Ni-NTA magnetic beads; 150 mM NaCl, 100 mM Tris pH 8, 0.5% NP40, 10% glycerol, 4 h at 4 °C; one wash at 300 mM NaCl; FLAG and ULK3 immunoblots; both purified. For orientation: Immunoblotting shows a protein as a band on a membrane.

Assay [2] deals with T1, purified recombinant His-tagged ULK3. Put plainly: condition: only PRMT heated for 20 min at 90 °C before incubation with ULK3; pull-down; recombinant PRMT1 and PRMT5 heated for 20 min at 90 °C before incubation with His-ULK3; Ni-NTA pull-down and immunoblots as for the unheated proteins; both purified.
Assay [3] deals with T2, Unc51-like kinase 3 (ULK3), endogenous (human (endogenous in SCC13 and Cal27)) (UniProt Q6PHR2).
T2 sequence: T1 sequence
Put plainly: co-IP; SCC13 cells, endogenous proteins; IP with anti-ULK3 or IgG then PRMT1 and PRMT5 immunoblot; IP with anti-PRMT1, anti-PRMT5 or IgG then ULK3 immunoblot.

Assay [4] concerns the target T2, Unc51-like kinase 3 (ULK3), endogenous (human (endogenous in SCC13 and Cal27)). Kind of assay: proximity ligation; Duo-link PLA on Cal27 and SCC13 cells with anti-ULK3 and anti-PRMT1 or anti-PRMT5 antibodies; anti-ULK3 alone or IgG as controls; endogenous proteins.
For assay [5], the target named is T3, wild-type ULK3, FLAG-tagged, in HeLa cells (UniProt Q6PHR2).
T3 sequence: T1 sequence
Kind of assay: co-IP; HeLa cells mock-transfected or transfected with ULK3 vectors; IP with FLAG antibodies; immunoblot of endogenous PRMT1 and PRMT5.

The target in assay [6] is T4, wild-type ULK3, epitope-tagged, in HEK293T cells (UniProt Q6PHR2).
T4 sequence: T1 sequence
Kind of assay: co-IP; HEK293T (text: HEK293) cells transfected with epitope-tagged ULK3 vectors; IP with anti-epitope antibodies (FLAG or V5); immunoblot of endogenous PRMT1 and PRMT5.

The target in assay [7] is T5, ULK3 (K139R), epitope-tagged, in HEK293T cells (UniProt Q6PHR2).
T5 sequence: T1 sequence with K139R
The assay is described as above.

The target of assay [8] is T6, ULK3 (K44H), epitope-tagged, in HEK293T cells (UniProt Q6PHR2).
T6 sequence: T1 sequence with K44H
The description is as above.

Assay [9] deals with recombinant FLAG-tagged PRMT5 (UniProt O14744). Kind of assay: pull-down; recombinant FLAG-PRMT1 or FLAG-PRMT5 incubated with His-ULK3, PRMT pulled down with anti-FLAG antibodies and protein G magnetic beads; 150 mM NaCl, 100 mM Tris pH 8, 0.5% NP40, 10% glycerol, 4 h at 4 °C; immunoblots; both purified.
Assay [10] addresses recombinant FLAG-tagged PRMT1 (UniProt Q99873). Described as above.

For the molecule “recombinant FLAG-tagged PRMT5 (from UniProt O14744 1-637) (enzyme)”, the binding entry in assay [1] is “binds”; in assay [2], “no binding”.

Turning to “PRMT5, endogenous (from UniProt O14744 1-637) (enzyme)”, the binding entry in assay [3], in assay [4], in assay [5], in assay [6], in [7] and in assay [8] was “binds” in each case.

Regarding “PRMT1, endogenous (from UniProt Q99873 1-371) (enzyme)”, the binding entry in assay [3], in [4], in assay [5], in [6], in assay [7] and in assay [8] was “binds” throughout.

On to “recombinant FLAG-tagged PRMT1 (from UniProt Q99873 1-371) (enzyme)”, for which the figures for the binding result in assay [1] and in [2] were “binds” and “no binding”, respectively.

B1: purified recombinant His-tagged ULK3 (enzyme, UniProt Q6PHR2 1-472)
chain: T1 sequence
Turning to B1, the binding entry in assay [9] and in assay [10] was “binds” each time.
